Reference: the supplement of paper PMC8728848
This is one part of the list.

Tests used:
Assay in all cases: glycan array binding signal (z-score within array); higher = stronger binding
Conditions in all cases: glycan notation: IUPAC condensed, linker removed
[1] = biological target: Fuc(a1-2)[GalNAc(a1-3)]Gal(b1-4)Glc
How it was run: (§1)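 Glycan array data came from 3228 arrays in the Consortium for Functional Glycomics database, and only arrays with an available protein sequence were kept. Glycan names were put into IUPAC-condensed notation, and columns mapping to the same glycan were averaged. The binding signal is a within-array Z-score, averaged across arrays of one protein sequence run at different concentrations or buffers and across linkers. A negative Z-score can be read as non-binding.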

[2] = biological target: Fuc(a1-2)[GalNAc(a1-3)]Gal(b1-4)GlcNAc
How it was run: as §1

[3] = biological target: Fuc(a1-2)[GalNAc(a1-3)]Gal(b1-4)GlcNAc(b1-2)Man(a1-3)[Fuc(a1-2)[GalNAc(a1-3)]Gal(b1-4)GlcNAc(b1-2)Man(a1-6)]Man(b1-4)GlcNAc(b1-4)GlcNAc
How it was run: as §1

[4] = biological target: Fuc(a1-2)[GalNAc(a1-3)]Gal(b1-4)GlcNAc(b1-2)Man(a1-3)[Fuc(a1-2)[GalNAc(a1-3)]Gal(b1-4)GlcNAc(b1-2)Man(a1-6)]Man(b1-4)GlcNAc(b1-4)[Fuc(a1-6)]GlcNAc
How it was run: as §1

[5] = biological target: Fuc(a1-2)[GalNAc(a1-3)]Gal(b1-4)GlcNAc(b1-3)Gal(b1-4)GlcNAc
How it was run: as §1

[6] = biological target: Fuc(a1-2)[GalNAc(a1-3)]Gal(b1-4)GlcNAc(b1-3)Gal(b1-4)GlcNAc(b1-3)Gal(b1-4)GlcNAc
How it was run: as §1

[7] = biological target: Fuc(a1-2)[GalNAc(a1-3)]Gal(b1-4)GlcNAc(b1-3)GalNAc
How it was run: as §1

[8] = biological target: Fuc(a1-2)[GalNAc(a1-3)]Gal(b1-4)[Fuc(a1-3)]GlcNAc
How it was run: as §1

[9] = biological target: Fuc(a1-2)[GalNAc(a1-3)]Gal(b1-4)[Fuc(a1-3)]GlcNAc(b1-3)GalNAc
How it was run: as §1

[10] = biological target: Fuc(a1-2)[GalNAc(a1-4)]Gal(b1-4)GlcNAc
How it was run: as §1

[11] = biological target: Fuc(a1-2)[GalNAc(b1-3)]Gal
How it was run: as §1

[12] = biological target: Fuc(a1-3)GlcNAc
How it was run: as §1

[13] = biological target: Fuc(a1-3)[Gal(b1-4)]Glc6S
How it was run: as §1

[14] = biological target: Fuc(a1-3)[Gal(b1-4)]GlcNAc
How it was run: as §1

[15] = biological target: Fuc(a1-3)[Gal(b1-4)]GlcNAc(b1-2)Man(a1-3)[Fuc(a1-3)[Gal(b1-4)]GlcNAc(b1-2)Man(a1-6)]Man(b1-4)GlcNAc(b1-4)GlcNAc
How it was run: as §1

[16] = biological target: Fuc(a1-3)[Gal(b1-4)]GlcNAc(b1-2)Man(a1-3)[Fuc(a1-3)[Gal(b1-4)]GlcNAc(b1-2)Man(a1-6)]Man(b1-4)GlcNAc(b1-4)[Fuc(a1-6)]GlcNAc
How it was run: as §1

[17] = biological target: Fuc(a1-3)[Gal(b1-4)]GlcNAc(b1-3)Gal(b1-3)[Fuc(a1-4)]GlcNAc
How it was run: as §1

[18] = biological target: Fuc(a1-3)[Gal(b1-4)]GlcNAc(b1-3)GalNAc
How it was run: as §1

[19] = biological target: Fuc(a1-3)[Gal(b1-4)]GlcNAc(b1-4)Gal(b1-4)[Fuc(a1-3)]GlcNAc
How it was run: as §1

[20] = biological target: Fuc(a1-3)[Gal(b1-4)]GlcNAc(b1-4)Gal(b1-4)[Fuc(a1-3)]GlcNAc(b1-4)Gal(b1-4)[Fuc(a1-3)]GlcNAc
How it was run: as §1

[21] = biological target: Fuc(a1-3)[Gal(b1-4)]GlcNAc(b1-6)GalNAc
How it was run: as §1

[22] = biological target: Fuc(a1-3)[Gal(b1-4)]GlcNAc(b1-6)[Gal(b1-3)GlcNAc(b1-3)]Gal(b1-4)Glc
How it was run: as §1

[23] = biological target: Fuc(a1-3)[Gal(b1-4)]GlcNAc(b1-6)[Neu5Ac(a2-3)Gal(b1-3)]GalNAc
How it was run: as §1

[24] = biological target: Fuc(a1-3)[Gal(b1-4)]GlcNAc6S
How it was run: as §1

[25] = biological target: Fuc(a1-3)[Gal3S(b1-4)]GlcNAc
How it was run: as §1

[26] = biological target: Fuc(a1-3)[Gal3S(b1-4)]GlcNAc6S
How it was run: as §1

[27] = biological target: Fuc(a1-3)[GalNAc(b1-4)]GlcNAc
How it was run: as §1

[28] = biological target: Fuc(a1-4)GlcNAc
How it was run: as §1

[29] = biological target: Fuc(b1-3)GlcNAc
How it was run: as §1

[30] = biological target: Gal(a1-2)Gal
How it was run: as §1

[31] = biological target: Gal(a1-3)Gal
How it was run: as §1

[32] = biological target: Gal(a1-3)Gal(b1-3)GlcNAc
How it was run: as §1

[33] = biological target: Gal(a1-3)Gal(b1-3)GlcNAc(b1-2)Man(a1-3)[Gal(a1-3)Gal(b1-3)GlcNAc(b1-2)Man(a1-6)]Man(b1-4)GlcNAc(b1-4)GlcNAc
How it was run: as §1

[34] = biological target: Gal(a1-3)Gal(b1-3)GlcNAc(b1-3)GalNAc
How it was run: as §1

[35] = biological target: Gal(a1-3)Gal(b1-3)[Fuc(a1-4)]GlcNAc(b1-2)Man(a1-3)[Gal(a1-3)Gal(b1-3)[Fuc(a1-4)]GlcNAc(b1-2)Man(a1-6)]Man(b1-4)GlcNAc(b1-4)GlcNAc
How it was run: as §1

[36] = biological target: Gal(a1-3)Gal(b1-4)Glc
How it was run: as §1

[37] = biological target: Gal(a1-3)Gal(b1-4)GlcNAc
How it was run: as §1

[38] = biological target: Gal(a1-3)Gal(b1-4)GlcNAc(b1-3)GalNAc
How it was run: as §1

[39] = biological target: Gal(a1-3)Gal(b1-4)[Fuc(a1-3)]GlcNAc
How it was run: as §1

[40] = biological target: Gal(a1-3)Gal(b1-4)[Fuc(a1-3)]GlcNAc(b1-2)Man(a1-3)[Gal(a1-3)Gal(b1-4)[Fuc(a1-3)]GlcNAc(b1-2)Man(a1-6)]Man(b1-4)GlcNAc(b1-4)GlcNAc
How it was run: as §1

[41] = biological target: Gal(a1-3)GalNAc
How it was run: as §1

[42] = biological target: Gal(a1-3)[Gal(a1-4)]Gal(b1-4)GlcNAc
How it was run: as §1

[43] = biological target: Gal(a1-4)Gal(b1-3)GlcNAc(b1-2)Man(a1-3)[Gal(a1-4)Gal(b1-3)GlcNAc(b1-2)Man(a1-6)]Man(b1-4)GlcNAc(b1-4)GlcNAc
How it was run: as §1

[44] = biological target: Gal(a1-4)Gal(b1-4)Glc
How it was run: as §1

[45] = biological target: Gal(a1-4)Gal(b1-4)GlcNAc
How it was run: as §1

B1: DCL-1 (Homo sapiens), Q8IX05 (protein)
chain: MLRAALPALLLPLLGLAAAAVADCPSSTWIQFQDSCYIFLQEAIKVESIEDVRNQCTDHGADMISIHNEEENAFILDTLKKQWKGPDDILLGMFYDTDDASFKWFDNSNMTFDKWTDQDDDEDLVDTCAFLHIKTGEWKKGNCEVSSVEGTLCKTAIPYKRKYLSDNHILISALVIASTVILTVLGAIIWFLYKKHSDSRFTTVFSTAPQSPYNEDCVLVVGEENEYPVQFD
glycan array binding signal (z-score) [1]: -0.069
glycan array binding signal (z-score) [2]: -0.734
glycan array binding signal (z-score) [3]: 0.221
glycan array binding signal (z-score) [4]: -0.264
glycan array binding signal (z-score) [5]: -0.481
glycan array binding signal (z-score) [6]: -0.401
glycan array binding signal (z-score) [7]: -0.248
glycan array binding signal (z-score) [8]: 1.47
glycan array binding signal (z-score) [9]: 0.181
glycan array binding signal (z-score) [10]: -0.167
glycan array binding signal (z-score) [11]: 0.685
glycan array binding signal (z-score) [12]: -1.35
glycan array binding signal (z-score) [13]: 0.173
glycan array binding signal (z-score) [14]: -0.875
glycan array binding signal (z-score) [15]: 0.387
glycan array binding signal (z-score) [16]: -0.02
glycan array binding signal (z-score) [17]: -0.443
glycan array binding signal (z-score) [18]: -0.476
glycan array binding signal (z-score) [19]: 1.97
glycan array binding signal (z-score) [20]: -0.891
glycan array binding signal (z-score) [21]: 1.77
glycan array binding signal (z-score) [22]: -0.76
glycan array binding signal (z-score) [23]: 0.063
glycan array binding signal (z-score) [24]: 0.525
glycan array binding signal (z-score) [25]: 0.188
glycan array binding signal (z-score) [26]: -0.491
glycan array binding signal (z-score) [27]: -0.238
glycan array binding signal (z-score) [28]: -0.138
glycan array binding signal (z-score) [29]: -0.644
glycan array binding signal (z-score) [30]: -0.68
glycan array binding signal (z-score) [31]: 0.515
glycan array binding signal (z-score) [32]: -0.767
glycan array binding signal (z-score) [33]: 0.204
glycan array binding signal (z-score) [34]: -0.409
glycan array binding signal (z-score) [35]: 0.312
glycan array binding signal (z-score) [36]: -0.606
glycan array binding signal (z-score) [37]: 0.709
glycan array binding signal (z-score) [38]: -0.261
glycan array binding signal (z-score) [39]: 0.29
glycan array binding signal (z-score) [40]: 0.472
glycan array binding signal (z-score) [41]: -0.867
glycan array binding signal (z-score) [42]: -0.245
glycan array binding signal (z-score) [43]: -0.546
glycan array binding signal (z-score) [44]: -0.289
glycan array binding signal (z-score) [45]: 0.053
